Source: the supplement of paper PMC12819154, “High-throughput peptide-centric local stability assay extends protein–ligand identification to membrane proteins, tissues and bacteria” (Nature Structural & Molecular Biology, 2025)
This is one part of the list. Small differences around the control level are noise.

Chains of the proteins cited; added tags and fusions are not shown. Lines headed by an entry give the natural chain unless they say otherwise; changes in a name come on top.
UniProt P09493, whole entry: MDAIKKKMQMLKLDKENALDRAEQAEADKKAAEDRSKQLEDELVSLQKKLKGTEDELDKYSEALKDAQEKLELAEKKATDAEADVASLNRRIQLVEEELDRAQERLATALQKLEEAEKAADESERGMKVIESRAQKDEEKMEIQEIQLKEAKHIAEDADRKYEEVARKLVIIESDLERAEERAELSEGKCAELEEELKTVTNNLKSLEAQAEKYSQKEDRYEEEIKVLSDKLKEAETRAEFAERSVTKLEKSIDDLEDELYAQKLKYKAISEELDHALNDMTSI
UniProt P02788: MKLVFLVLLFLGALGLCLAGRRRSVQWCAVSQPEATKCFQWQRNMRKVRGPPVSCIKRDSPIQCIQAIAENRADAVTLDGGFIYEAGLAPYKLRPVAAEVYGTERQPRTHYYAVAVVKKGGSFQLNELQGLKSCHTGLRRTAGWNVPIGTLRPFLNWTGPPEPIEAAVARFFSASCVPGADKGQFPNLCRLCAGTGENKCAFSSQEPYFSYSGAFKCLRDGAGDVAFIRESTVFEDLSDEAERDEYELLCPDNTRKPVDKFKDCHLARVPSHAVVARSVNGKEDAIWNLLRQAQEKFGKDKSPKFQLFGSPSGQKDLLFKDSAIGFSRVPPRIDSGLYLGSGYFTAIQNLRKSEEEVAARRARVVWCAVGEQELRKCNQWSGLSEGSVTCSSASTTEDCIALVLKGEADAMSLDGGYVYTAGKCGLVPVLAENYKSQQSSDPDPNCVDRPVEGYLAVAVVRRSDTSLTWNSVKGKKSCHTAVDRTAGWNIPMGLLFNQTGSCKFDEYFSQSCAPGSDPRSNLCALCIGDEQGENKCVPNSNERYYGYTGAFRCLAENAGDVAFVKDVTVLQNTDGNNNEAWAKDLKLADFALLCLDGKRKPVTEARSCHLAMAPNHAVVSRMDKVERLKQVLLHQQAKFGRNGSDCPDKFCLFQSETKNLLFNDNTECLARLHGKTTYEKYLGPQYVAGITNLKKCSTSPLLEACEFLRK
UniProt P04080: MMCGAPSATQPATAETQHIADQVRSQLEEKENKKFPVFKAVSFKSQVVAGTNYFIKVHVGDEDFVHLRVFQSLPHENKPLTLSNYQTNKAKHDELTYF
UniProt P08758: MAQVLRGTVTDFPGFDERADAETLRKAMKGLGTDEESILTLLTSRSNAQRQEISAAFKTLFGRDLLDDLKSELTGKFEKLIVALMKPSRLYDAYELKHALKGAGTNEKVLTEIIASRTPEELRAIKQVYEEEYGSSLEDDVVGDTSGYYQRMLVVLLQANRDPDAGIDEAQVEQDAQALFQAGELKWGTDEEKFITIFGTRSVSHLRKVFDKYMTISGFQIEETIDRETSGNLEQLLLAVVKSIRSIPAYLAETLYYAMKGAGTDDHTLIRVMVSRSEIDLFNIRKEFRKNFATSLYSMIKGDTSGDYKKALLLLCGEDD
UniProt P12270, whole entry: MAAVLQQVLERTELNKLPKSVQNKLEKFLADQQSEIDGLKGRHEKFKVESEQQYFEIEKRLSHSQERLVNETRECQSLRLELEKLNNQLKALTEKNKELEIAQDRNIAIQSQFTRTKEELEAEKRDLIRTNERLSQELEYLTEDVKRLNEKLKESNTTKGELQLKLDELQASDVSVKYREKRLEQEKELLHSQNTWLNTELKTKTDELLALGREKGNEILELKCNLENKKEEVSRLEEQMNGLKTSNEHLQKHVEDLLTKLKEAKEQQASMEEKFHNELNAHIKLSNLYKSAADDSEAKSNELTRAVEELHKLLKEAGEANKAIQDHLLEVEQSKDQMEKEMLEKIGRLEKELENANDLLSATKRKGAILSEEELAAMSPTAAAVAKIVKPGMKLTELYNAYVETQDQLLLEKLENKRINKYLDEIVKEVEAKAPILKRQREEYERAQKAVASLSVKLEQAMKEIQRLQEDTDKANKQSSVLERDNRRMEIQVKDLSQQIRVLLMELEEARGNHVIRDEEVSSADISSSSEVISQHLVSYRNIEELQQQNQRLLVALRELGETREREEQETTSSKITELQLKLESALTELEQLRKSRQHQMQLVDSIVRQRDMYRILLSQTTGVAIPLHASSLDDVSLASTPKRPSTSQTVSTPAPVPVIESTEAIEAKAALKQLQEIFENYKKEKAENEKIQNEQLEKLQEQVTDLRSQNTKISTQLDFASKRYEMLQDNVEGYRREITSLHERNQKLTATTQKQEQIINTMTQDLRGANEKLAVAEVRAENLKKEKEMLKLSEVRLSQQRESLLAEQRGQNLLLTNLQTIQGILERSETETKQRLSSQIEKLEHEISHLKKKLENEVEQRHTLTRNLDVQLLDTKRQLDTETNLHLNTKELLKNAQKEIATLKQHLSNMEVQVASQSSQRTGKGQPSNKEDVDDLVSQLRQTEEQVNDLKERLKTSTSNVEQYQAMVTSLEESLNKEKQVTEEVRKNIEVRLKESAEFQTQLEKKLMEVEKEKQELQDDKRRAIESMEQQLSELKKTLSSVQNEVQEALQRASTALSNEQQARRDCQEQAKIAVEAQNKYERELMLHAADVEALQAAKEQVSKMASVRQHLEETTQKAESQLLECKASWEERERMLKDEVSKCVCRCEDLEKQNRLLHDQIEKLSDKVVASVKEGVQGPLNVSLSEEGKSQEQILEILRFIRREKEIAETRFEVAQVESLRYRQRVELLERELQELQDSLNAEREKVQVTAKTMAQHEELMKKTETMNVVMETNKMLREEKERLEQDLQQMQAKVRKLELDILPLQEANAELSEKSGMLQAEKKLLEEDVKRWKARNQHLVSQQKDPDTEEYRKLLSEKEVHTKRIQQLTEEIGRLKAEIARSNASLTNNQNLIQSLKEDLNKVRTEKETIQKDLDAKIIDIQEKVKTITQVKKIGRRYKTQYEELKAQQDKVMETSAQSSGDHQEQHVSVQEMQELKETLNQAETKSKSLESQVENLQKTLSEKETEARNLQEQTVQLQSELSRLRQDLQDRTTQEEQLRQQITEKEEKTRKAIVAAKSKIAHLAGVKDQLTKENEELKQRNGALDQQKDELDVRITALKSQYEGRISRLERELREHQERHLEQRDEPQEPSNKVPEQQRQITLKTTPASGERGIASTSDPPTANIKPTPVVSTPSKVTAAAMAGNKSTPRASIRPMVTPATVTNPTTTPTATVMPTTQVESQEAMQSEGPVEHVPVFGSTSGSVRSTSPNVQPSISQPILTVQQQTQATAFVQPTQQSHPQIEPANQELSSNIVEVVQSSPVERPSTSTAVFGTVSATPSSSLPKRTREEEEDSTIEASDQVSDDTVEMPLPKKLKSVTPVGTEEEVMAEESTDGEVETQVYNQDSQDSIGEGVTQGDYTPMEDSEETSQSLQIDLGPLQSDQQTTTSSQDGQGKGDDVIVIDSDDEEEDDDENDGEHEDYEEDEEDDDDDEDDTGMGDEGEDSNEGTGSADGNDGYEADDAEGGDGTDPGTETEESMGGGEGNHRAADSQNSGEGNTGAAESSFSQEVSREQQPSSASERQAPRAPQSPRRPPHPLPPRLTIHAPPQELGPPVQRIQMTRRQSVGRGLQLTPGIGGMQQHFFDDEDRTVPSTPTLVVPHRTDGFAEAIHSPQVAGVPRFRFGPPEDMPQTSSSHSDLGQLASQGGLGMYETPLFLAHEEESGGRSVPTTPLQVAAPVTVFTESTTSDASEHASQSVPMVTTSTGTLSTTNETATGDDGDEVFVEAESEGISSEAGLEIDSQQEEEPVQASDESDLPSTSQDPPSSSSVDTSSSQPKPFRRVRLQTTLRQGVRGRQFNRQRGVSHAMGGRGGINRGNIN
UniProt P13727: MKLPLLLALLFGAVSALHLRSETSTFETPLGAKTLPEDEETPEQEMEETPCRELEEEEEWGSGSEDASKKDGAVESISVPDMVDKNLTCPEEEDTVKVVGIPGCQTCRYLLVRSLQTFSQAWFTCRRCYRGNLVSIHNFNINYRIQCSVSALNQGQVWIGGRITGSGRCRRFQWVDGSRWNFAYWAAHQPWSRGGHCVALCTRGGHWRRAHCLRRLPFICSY
UniProt P13674: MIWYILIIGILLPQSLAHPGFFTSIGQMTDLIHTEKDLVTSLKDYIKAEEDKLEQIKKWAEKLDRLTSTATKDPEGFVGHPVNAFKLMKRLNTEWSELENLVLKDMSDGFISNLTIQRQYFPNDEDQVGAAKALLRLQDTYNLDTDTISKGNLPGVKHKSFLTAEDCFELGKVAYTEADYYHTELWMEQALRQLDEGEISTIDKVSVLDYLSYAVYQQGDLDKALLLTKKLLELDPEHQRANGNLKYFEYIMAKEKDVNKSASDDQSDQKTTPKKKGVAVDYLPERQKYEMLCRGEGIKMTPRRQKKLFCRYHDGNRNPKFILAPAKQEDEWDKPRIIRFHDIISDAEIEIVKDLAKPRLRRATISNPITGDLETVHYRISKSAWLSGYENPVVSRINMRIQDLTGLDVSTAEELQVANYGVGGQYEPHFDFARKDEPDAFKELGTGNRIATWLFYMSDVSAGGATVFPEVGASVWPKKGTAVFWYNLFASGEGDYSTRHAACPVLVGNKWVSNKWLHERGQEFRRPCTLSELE
UniProt P08240: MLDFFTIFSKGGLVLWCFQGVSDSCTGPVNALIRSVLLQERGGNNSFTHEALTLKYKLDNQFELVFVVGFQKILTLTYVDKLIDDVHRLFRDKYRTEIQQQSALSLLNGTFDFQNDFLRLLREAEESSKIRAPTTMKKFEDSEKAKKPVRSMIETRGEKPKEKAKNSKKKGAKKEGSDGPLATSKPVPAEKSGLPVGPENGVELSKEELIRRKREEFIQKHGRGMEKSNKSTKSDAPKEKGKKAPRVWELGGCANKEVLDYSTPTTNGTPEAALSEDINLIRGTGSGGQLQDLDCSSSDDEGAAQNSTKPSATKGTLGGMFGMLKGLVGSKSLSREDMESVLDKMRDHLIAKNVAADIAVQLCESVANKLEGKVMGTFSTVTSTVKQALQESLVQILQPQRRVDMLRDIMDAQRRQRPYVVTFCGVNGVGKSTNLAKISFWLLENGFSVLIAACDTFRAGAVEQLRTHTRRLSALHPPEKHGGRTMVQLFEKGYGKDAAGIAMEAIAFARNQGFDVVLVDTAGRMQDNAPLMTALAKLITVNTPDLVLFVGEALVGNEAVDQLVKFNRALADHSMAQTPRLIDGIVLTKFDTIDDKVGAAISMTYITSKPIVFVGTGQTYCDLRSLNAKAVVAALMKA
UniProt P10635, whole entry: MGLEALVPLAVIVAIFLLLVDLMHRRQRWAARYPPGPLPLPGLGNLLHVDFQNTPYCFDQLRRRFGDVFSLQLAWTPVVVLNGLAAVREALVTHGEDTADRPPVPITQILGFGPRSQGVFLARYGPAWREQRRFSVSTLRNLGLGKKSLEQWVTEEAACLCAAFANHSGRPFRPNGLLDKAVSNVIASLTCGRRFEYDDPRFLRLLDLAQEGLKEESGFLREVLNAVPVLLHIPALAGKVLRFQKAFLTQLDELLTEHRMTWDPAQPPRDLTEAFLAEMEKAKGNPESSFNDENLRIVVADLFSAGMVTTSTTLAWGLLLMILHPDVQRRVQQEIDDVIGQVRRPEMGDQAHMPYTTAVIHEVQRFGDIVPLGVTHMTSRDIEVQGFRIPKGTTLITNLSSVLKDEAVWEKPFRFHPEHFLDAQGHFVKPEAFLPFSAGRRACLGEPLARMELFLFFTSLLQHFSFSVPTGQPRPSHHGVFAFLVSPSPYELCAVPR
UniProt P10636, whole entry: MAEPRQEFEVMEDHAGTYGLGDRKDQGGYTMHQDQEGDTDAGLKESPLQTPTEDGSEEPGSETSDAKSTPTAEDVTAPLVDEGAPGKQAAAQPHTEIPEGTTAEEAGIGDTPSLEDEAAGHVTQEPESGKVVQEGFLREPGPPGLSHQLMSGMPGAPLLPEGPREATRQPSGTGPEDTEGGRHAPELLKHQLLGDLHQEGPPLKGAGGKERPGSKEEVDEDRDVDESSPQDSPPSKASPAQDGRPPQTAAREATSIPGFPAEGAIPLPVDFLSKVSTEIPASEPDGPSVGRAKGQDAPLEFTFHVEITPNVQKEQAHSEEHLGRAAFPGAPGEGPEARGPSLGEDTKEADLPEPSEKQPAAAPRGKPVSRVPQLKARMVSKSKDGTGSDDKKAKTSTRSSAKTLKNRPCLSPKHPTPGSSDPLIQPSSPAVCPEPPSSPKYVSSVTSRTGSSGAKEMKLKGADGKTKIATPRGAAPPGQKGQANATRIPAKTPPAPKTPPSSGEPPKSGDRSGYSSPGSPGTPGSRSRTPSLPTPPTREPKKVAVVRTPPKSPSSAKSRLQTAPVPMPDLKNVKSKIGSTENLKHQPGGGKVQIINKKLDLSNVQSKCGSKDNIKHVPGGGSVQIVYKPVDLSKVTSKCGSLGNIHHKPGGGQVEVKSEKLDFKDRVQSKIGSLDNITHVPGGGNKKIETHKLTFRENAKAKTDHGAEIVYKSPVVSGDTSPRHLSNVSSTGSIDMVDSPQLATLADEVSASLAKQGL
UniProt P02144: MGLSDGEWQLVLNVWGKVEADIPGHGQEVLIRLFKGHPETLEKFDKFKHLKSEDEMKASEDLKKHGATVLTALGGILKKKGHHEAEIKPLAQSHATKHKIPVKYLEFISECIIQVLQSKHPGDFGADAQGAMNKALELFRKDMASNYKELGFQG

Compound: Cc1nc(Nc2ncc(C(=O)Nc3c(C)cccc3Cl)s2)cc(N2CCN(CCO)CC2)n1 [dasatinib]
Assay: log2 fold change of tryptic peptide abundance, ligand vs vehicle (limited proteolysis) (log2 ratio); higher = more trypsin-susceptible (destabilized)
Conditions: ligand concentration: 5 uM; sample: K562 cleared lysate

| Target | log2 fold change |
| --- | --- |
| FDX1 (peptide sequence: QSIDVGKTS, peptide start residue: 176) (UniProt P10109) | -0.248 |
| TPT1 (peptide sequence: DLISHDEMFSDIYK, peptide start residue: 6) (UniProt P13693) | 0.277 |
| TPM1 (peptide sequence: DEEKMEIQEIQLK, peptide start residue: 137) (UniProt P09493) | 0.265 |
| HBZ (peptide sequence: AHGSKVVAAVGDAVK, peptide start residue: 58) (UniProt P02008) | -0.206 |
| GALT (peptide sequence: DRETATIA, peptide start residue: 372) (UniProt P07902) | 0.253 |
| LTF (peptide sequence: YYGYTGAFR, peptide start residue: 544) (UniProt P02788) | 0.265 |
| CSTB (peptide sequence: VHVGDEDFVHLR, peptide start residue: 57) (UniProt P04080) | -0.296 |
| ACAA1 (peptide sequence: GNPGNITSR, peptide start residue: 159) (UniProt P09110) | 0.137 |
| ANXA5 (peptide sequence: VLTEIIASR, peptide start residue: 109) (UniProt P08758) | 0.182 |
| TPR (peptide sequence: LLVALRELGETR, peptide start residue: 553) (UniProt P12270) | 1.47 |
| RPN1 (peptide sequence: LKTEGSDLCDR, peptide start residue: 537) (UniProt P04843) | 0.254 |
| GAPDH (peptide sequence: AGAHLQGGAKR, peptide start residue: 108) (UniProt P04406) | -0.384 |
| ASNS (peptide sequence: ELYLFDVLR, peptide start residue: 396) (UniProt P08243) | 0.287 |
| PRG2 (peptide sequence: VVGIPGCQTCR, peptide start residue: 98) (UniProt P13727) | -0.0372 |
| UniProt P0DTW1 (peptide sequence: TPEEGEGQSQC, peptide start residue: 107) | 0.0866 |
| CISD3 (peptide sequence: MVALCTCK, peptide start residue: 94) (UniProt P0C7P0) | -0.569 |
| P4HA1 (peptide sequence: ATISNPITGDLETVHYR, peptide start residue: 363) (UniProt P13674) | 0.775 |
| UniProt P0DJJ0 (peptide sequence: FVQVSEDSGR, peptide start residue: 128) | 0.169 |
| ASL (peptide sequence: CAGLLMTLK, peptide start residue: 307) (UniProt P04424) | 0.166 |
| IGF2R (peptide sequence: LTYENGLLK, peptide start residue: 1302) (UniProt P11717) | -0.222 |
| MYBL2 (peptide sequence: DQLFMQEK, peptide start residue: 673) (UniProt P10244) | -0.425 |
| COX4I1 (peptide sequence: SEDFSLPAYMDRR, peptide start residue: 30) (UniProt P13073) | 0.0807 |
| UniProt P0CJ78 (peptide sequence: AAHAPPAAAAEAPK, peptide start residue: 461) | -0.639 |
| UniProt P08240 (peptide sequence: TMVQLFEK, peptide start residue: 485) | -0.251 |
| CYP2D6 (peptide sequence: PFRPNGLLDK, peptide start residue: 171) (UniProt P10635) | -0.127 |
| MYC (peptide sequence: PLNVSFTNR, peptide start residue: 2) (UniProt P01106) | -0.248 |
| MAPT (peptide sequence: IGSLDNITHVPGGGNK, peptide start residue: 671) (UniProt P10636) | -0.144 |
| UniProt P02144 (peptide sequence: KKGHHEAEIK, peptide start residue: 79) | 0.183 |
| UniProt P10075 (peptide sequence: AAELGVNFGR, peptide start residue: 162) | 0.0897 |

At a glance, some entries already given.

| Target | log2 fold change |
| --- | --- |
| MYBL2 (peptide sequence: DQLFMQEK, peptide start residue: 673) (UniProt P10244) | -0.425 |
| COX4I1 (peptide sequence: SEDFSLPAYMDRR, peptide start residue: 30) (UniProt P13073) | 0.0807 |
